One substance from paper PMC11212092 can be followed below.

Protein sequences, listed by entry. Tags and fused reporters are not part of them.
UniProt Q15365: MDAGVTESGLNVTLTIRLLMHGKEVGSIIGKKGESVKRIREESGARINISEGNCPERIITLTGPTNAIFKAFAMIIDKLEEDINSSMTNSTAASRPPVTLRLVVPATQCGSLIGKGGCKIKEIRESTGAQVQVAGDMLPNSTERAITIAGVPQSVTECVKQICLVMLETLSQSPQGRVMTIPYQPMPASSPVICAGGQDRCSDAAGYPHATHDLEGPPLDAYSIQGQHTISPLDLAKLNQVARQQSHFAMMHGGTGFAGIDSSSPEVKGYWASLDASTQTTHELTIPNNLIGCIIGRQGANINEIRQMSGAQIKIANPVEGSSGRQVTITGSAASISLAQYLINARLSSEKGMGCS

Results are given in words; binding and its absence hold for the method and conditions named. For some assays here: In cells and extracts the contact can be indirect. Some binding calls cover weakened binding; strength is not graded here.

Assay [1] has as its target T1, SIVA-1 (human) (UniProt O15304).
T1 sequence: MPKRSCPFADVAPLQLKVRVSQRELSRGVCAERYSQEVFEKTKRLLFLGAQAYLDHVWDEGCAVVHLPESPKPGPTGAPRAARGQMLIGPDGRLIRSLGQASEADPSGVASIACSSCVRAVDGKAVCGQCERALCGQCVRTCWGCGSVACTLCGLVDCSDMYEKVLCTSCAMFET
The experiment in a line: co-IP; Co-IP; unpublished data, no details given.

The target of assay [2] is T1, SIVA-1 (human). The experiment in a line: two-hybrid; yeast two-hybrid; unpublished data, no details given.

With PCBP1 (from UniProt Q15365 1-356), the binding entry with SIVA-1 (human) [1] and in the assay with SIVA-1 (human) [2] was “binds” throughout.
